According to PMC4342170:
For at least one entry, the source does not settle the construct or the ends of the probe. Where cells or extracts were used, other partners may take part. No signal at the amounts used counts as a negative.

Chains of the proteins cited; added tags and fusions are not shown.
UniProt P40763, whole entry: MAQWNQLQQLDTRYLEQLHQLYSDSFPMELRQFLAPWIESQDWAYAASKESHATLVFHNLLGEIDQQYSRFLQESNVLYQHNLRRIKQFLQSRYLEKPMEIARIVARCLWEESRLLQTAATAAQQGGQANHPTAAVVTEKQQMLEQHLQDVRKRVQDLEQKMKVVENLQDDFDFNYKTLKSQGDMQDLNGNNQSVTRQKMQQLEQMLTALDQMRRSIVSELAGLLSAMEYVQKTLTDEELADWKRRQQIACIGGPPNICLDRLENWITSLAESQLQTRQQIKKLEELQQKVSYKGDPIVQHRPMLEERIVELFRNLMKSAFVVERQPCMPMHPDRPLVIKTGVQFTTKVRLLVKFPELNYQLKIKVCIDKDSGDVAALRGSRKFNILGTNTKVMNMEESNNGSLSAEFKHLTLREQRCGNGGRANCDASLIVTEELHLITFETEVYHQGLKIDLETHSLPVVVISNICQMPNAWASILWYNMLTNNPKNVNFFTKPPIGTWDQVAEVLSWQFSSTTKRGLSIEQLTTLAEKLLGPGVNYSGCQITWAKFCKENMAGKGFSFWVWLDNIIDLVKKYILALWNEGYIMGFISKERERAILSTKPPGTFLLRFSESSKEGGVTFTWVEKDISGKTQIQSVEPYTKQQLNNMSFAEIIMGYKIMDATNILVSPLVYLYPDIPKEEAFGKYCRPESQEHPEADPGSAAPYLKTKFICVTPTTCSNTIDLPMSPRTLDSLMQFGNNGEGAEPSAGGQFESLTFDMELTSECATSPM

Biological target: STAT3 (Homo sapiens (1.1B4 pancreatic beta cells)) (UniProt P40763)
Assay: competition with a labelled probe
Details: 100x unlabeled M1 against labeled probe 1, IL-6 + Dx nuclear extract; 10 mM HEPES pH 7.8, 50 mM KCl, 5 mM MgCl2, 1 mM EDTA, 10% glycerol, 5 mM DTT, 1 mg/mL BSA, 0.7 mM PMSF, 50 ng/uL poly(dI-dC), room temperature; 4% native acrylamide gel; protein in an extract; label: none (unlabeled competitor)

Sequence: AGTGTGCAGTAGGAAAAGGCTCATA (double strand) [probe M1]
- binding result: no binding
